# Screening data, single-dose tests

By UniProt entry, the sequences of proteins in these tests, tags left out.
UniProt P9WFT3, whole entry: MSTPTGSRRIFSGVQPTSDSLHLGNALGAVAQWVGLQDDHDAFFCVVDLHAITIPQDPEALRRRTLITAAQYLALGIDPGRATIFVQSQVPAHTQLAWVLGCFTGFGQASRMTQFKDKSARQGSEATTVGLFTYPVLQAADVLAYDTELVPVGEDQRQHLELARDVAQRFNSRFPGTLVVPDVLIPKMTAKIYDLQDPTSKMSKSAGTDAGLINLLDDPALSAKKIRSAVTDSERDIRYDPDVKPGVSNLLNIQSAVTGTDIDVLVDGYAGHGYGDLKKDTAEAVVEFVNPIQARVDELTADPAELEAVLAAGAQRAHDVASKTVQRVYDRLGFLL

Data taken from ChEMBL document CHEMBL3988442, “University of Dundee, Small-Polar-MMV Screening Library” (2021).

Results are given as percent effect. The controls that fix the scale are not given in the record; negative values are as filed. This is an unselected part of the compounds tested.

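Enzyme assay of tryptophanyl-tRNA synthetase; the read-out is not stated. Target: Tryptophan-tRNA ligase, Mycobacterium tuberculosis (UniProt P9WFT3). Compounds at 10 µM. Higher most likely means stronger inhibition; the record gives no direction and few retests gave an IC50. About 65,000 compounds were tested under these conditions; 0.098% (about 64) showed 50% or more at least once.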

| # | SMILES | Percent Effect |
|---|---|---|
| 1 | `Cc1cccc(C(=O)NC(CN2CCCC2=O)c2ccccc2)n1` (stereo unspecified) | 0.6289 |
| 2 | `Fc1cnc(N2CC3(CCN(CC4CC4)C3)C2)nc1` | -2.196 |
| 3 | `COCCOc1ccccc1CNCC1COC2(CCCC2)O1` (stereo unspecified) | -5.636 |
| 4 | `CN1CCN(C(=O)[C@H]2C[C@@H]3CCN(c4ncc(F)cn4)C[C@@H]3O2)CC1` | 2.204 |
| 5 | `COCCN1CCC2(CC1)CN(C(C)=O)c1ccc(C)cc12` | 14.43 |
| 6 | `CC(C)(CNC(=O)CCOc1cccc(F)c1)C(N)=O` | -0.9434 |
| 7 | `Cc1cc(C2CN(CC(=O)NCc3ccco3)CCO2)ccc1F` (stereo unspecified) | -0.2129 |
| 8 | `CC(C)CN1CCS(=O)(=O)[C@@H]2CCN(S(=O)(=O)CC(C)C)CC[C@@H]21` | -4.863 |
| 9 | `CC(=O)N1CCc2c(nc(N(C)C)nc2N(C)CCCC2CCCO2)C1` (stereo unspecified) | 7.22 |
| 10 | `CN(Cc1nnc(C2CC2)n1C)C1CCN(Cc2nccn2C)C1` (stereo unspecified) | 1.3 |
| 11 | `COCCNC(=O)[C@@H]1C[C@@H]2CCN(c3ncccn3)C[C@H]2O1` | 21.51 |
| 12 | `O=C(Cn1cc(NC(=O)c2ccc(F)cc2F)cn1)NC1CCCC1` | 2.559 |
| 13 | `CC(Cc1c(F)cccc1F)NC(=O)Nc1cnn(CC(N)=O)c1` (stereo unspecified) | -3.801 |
| 14 | `CN(C)C(=O)CCNC(=O)Nc1sc2ccccc2c1Cl` | -2.081 |
| 15 | `O=C(N1CCOCC1)N1CCN(CC(O)c2ccc(F)cc2)CC1` (stereo unspecified) | -0.6493 |
| 16 | `CC(Nc1cccc2c1OCCO2)C(=O)Nc1ccc(S(N)(=O)=O)cc1` (stereo unspecified) | -0.7227 |
| 17 | `NCC1Cc2cccc(-c3ccc(O)c(F)c3)c2O1` (stereo unspecified) | -3.558 |
| 18 | `NS(=O)(=O)CCNC(=O)c1ccc(-c2ccc(F)cc2)cc1F` | -1.408 |
| 19 | `O=C(O)c1cc(Br)cnc1OCC1CC1` | -4.289 |
| 20 | `CC(C)(C)CCN1CCCC(Cn2cc(CCO)nn2)C1` (stereo unspecified) | -0.243 |
| 21 | `CC(C)n1ccnc1C1CCN(c2nccc(C(F)(F)F)n2)CC1` | -3.065 |
| 22 | `CCCn1cnnc1CN(C)C(=O)CCC(=O)Nc1cc(C)ccc1F` | 0.9709 |
| 23 | `CN(CC(C)(C)C)c1ccc(C(=O)NCCCc2ccccn2)cn1` | -4.935 |
| 24 | `O=C(COCC1CC[C@H]2[C@H](CCN2c2ncccn2)O1)N1CCCC1` (stereo partly specified) | -0.6006 |
| 25 | `CCCN1CCc2[nH]nc(C(=O)N3CCNC(=O)C3)c2C1` | -1.402 |
| 26 | `COCCCNC(=O)Cn1nnc(-c2cc3ccccc3o2)n1` | 3.177 |
| 27 | `COc1ccc(CN(CCC#N)CCN2CCOCC2)c(OC)c1` | -2.783 |
| 28 | `C[C@@H]1CN(CCOc2ccc(F)cc2)CC[C@@]1(O)C1CCOCC1` | 0.6452 |
| 29 | `CN(CCc1ccccn1)C(=O)CCC1CCCN(c2ccncc2)C1` (stereo unspecified) | -4.271 |
| 30 | `Cn1cnc(S(=O)(=O)N2CCSC3(CCCCC3)C2)c1` | -6.274 |
| 31 | `Cc1cnn(CC2CCCCN2C(=O)c2cc(Cl)c[nH]2)c1` (stereo unspecified) | -0.807 |
| 32 | `Cc1nc(CN2CCCCC2CCc2ccc(O)cc2)co1` (stereo unspecified) | 1.089 |
| 33 | `Cc1ncsc1C(=O)N(Cc1ccccc1)C1CC1` | -6.551 |
| 34 | `CCc1nccn1C1CCCN(C(=O)c2ccc(C(=O)NC)nc2)C1` (stereo unspecified) | 3.118 |
| 35 | `O=C1CC(N2CCN(c3ccc(O)cc3)CC2)C(=O)N1Cc1cccs1` (stereo unspecified) | 2.202 |
| 36 | `Cn1ccnc1N1CCN(C(=O)Cc2ccc(F)cc2)CC1` | 0.9923 |
| 37 | `Cc1n[nH]c(C2CN(C(=O)c3ccc(Cl)o3)CCO2)n1` (stereo unspecified) | -1.053 |
| 38 | `CC(C)C(=O)N1CCC(CNc2nc(C(C)C)nc3c2cnn3C)CC1` | 0.000009 |
| 39 | `Cc1nc2ccccc2nc1CN(C)CC1CCCN1c1cccnn1` (stereo unspecified) | -8.21 |
| 40 | `O=c1[nH]c2ccc(S(=O)(=O)N(CCO)Cc3ccncc3)cc2[nH]1` | -8.159 |
| 41 | `CC1CN(C)c2ccccc2CN1C(=O)c1ccncc1F` (stereo unspecified) | -4.15 |
| 42 | `COCCCC1CCN([C@@H]2c3ccccc3C3(CCNCC3)[C@H]2O)CC1` | 3.051 |
| 43 | `Cc1nnc(N2C[C@H](OCc3ccncc3)[C@H]3OCCC[C@H]32)s1` | 3.89 |
| 44 | `CC(C)(C)CN(CCC#N)C(=O)Nc1cccc(N2CCNC2=O)c1` | -0.7988 |
| 45 | `COc1cc2nc(C)sc2cc1NC(=O)C(C)NC(N)=O` (stereo unspecified) | -1.616 |
| 46 | `Cc1cccc(CN2C[C@@H]3COC[C@]3(COCC(=O)N(C)C)C2)n1` | 0.4537 |
| 47 | `Cc1cnn(CC2CN(Cc3nc(N)c4ccccc4n3)CCO2)c1` (stereo unspecified) | 1.955 |
| 48 | `CC(C)OCc1ncn2c1CN(Cc1cccs1)CCC2` | 4.098 |
| 49 | `CN(Cc1cnn(C)c1)C(=O)NC1CCCC1` | -2.037 |
| 50 | `O=C(CN1CCOC(Cn2cccn2)C1)NCc1cccs1` (stereo unspecified) | -1.263 |
| 51 | `Cc1ccc(CC(=O)N2CCn3cc(Cn4cncn4)nc3C2)cc1` | -8.628 |
| 52 | `OC(COc1ccccc1Br)COC1CCOCC1` (stereo unspecified) | -1.732 |
| 53 | `Cc1cnc(C(=O)N2CC[C@H]3C[C@@H](c4nc(C)cs4)O[C@@H]3C2)cn1` | 18.09 |
| 54 | `Cc1cc(CN2CCCC2c2noc(C(C)C)n2)on1` (stereo unspecified) | 1.753 |
| 55 | `Cc1cc2nc(CO[C@H]3CN(C(=O)C4CC4)C[C@H]3F)[nH]c2cc1C` | 9.636 |
| 56 | `Cc1noc([C@]23COC[C@H]2CN(S(=O)(=O)C2CC2)C3)n1` | -3.477 |
| 57 | `CCN(Cc1ccc2c(c1)OCCO2)C(=O)NC(C)Cn1cccn1` (stereo unspecified) | 6.879 |
| 58 | `CN(C)c1nc(CNC(=O)N[C@H](CO)c2ccccc2)cs1` | -4.157 |
| 59 | `Cc1cccc(N(CCC#N)S(=O)(=O)CC2CCCCO2)c1` (stereo unspecified) | 3.981 |
| 60 | `Cc1nn(C)c(N(C)C)c1CNCc1cccc(Br)c1` | -0.7916 |
| 61 | `Cc1nc[nH]c1CNCc1cccnc1N(C)C1CCCCC1` | -0.4182 |
| 62 | `CC1CC(NS(=O)(=O)c2ccc(C(F)(F)F)nc2)C1` (stereo unspecified) | 0.8163 |
| 63 | `CC(CC#N)N(C)Cc1ccccc1F` (stereo unspecified) | -11.35 |
| 64 | `CC[C@@]1(O)CCN(C(=O)c2ccoc2)C[C@H]1O` | 0 |
| 65 | `CN(C)CCNC(=O)Cc1cccc(I)c1` | 4.046 |
| 66 | `CN(CC(N)=O)C(=O)C1Cc2cc(Cl)ccc2O1` (stereo unspecified) | -0.25 |
| 67 | `CCc1ccc(CNc2cc(N3CCCC3CO)ncn2)s1` (stereo unspecified) | -0.7382 |
| 68 | `Cn1ccc2c(-c3cc(N4CCCCC4)ncn3)ccnc21` | 2.016 |
| 69 | `CC(C)Oc1ncccc1CNC(=O)N1CCSCC1` | -2.774 |
| 70 | `Cc1ccc(C(=O)N2CCC3(CC2)CN(CCN(C)C)C(=O)O3)c(F)c1` | 6.56 |
| 71 | `CC(O)CN1CCC(CN(C)CCC(=O)NC2CCCC2)CC1` (stereo unspecified) | -4.644 |
| 72 | `CC(C)(C)Nc1c(C2CCCN(C(=O)C3CC3)C2)nc2ccccn12` (stereo unspecified) | 8.179 |
| 73 | `CCC1CN(c2nnc(C)c(C)c2C#N)CCO1` (stereo unspecified) | 8.019 |
| 74 | `CC(C)C(=O)N1CCOC2(COCCN(c3ncccn3)C2)C1` (stereo unspecified) | -0.07582 |
| 75 | `COCc1ccccc1NC(=O)CCNC(=O)c1ccoc1` | -1.162 |
| 76 | `O=C(O)c1ccc(N2CCC(Oc3cccc(F)c3)CC2)nc1` | -3.49 |
| 77 | `Cc1ccc(C(=O)N2CC3(CCNCC3)c3cc(Cl)ccc32)cn1` | -4.478 |
| 78 | `COCCN(CCC#N)S(=O)(=O)c1ccc(F)cc1F` | -4.844 |
| 79 | `CCN(Cc1cccc(C(=O)Nc2ncc(C)s2)c1)[C@H]1COC[C@@H]1O` | -11.01 |
| 80 | `O=C(CC1CC1)N1CCC2(CC1)CN(CCn1cccn1)C(=O)CO2` | -1.763 |
| 81 | `CCCSCC(=O)N1C[C@H]2CC[C@@H]1CN(c1ncccn1)C2` | -3.476 |
| 82 | `CN(CCCc1cc(-c2ccccc2)no1)S(C)(=O)=O` | 7.741 |
| 83 | `O=C(NCCCN1CCCC1)c1n[nH]c(=O)c2ccccc12` | 1.199 |
| 84 | `CCCNC(=O)c1cc(-c2ccn(C(C)C)n2)n2ccccc12` | -0.3236 |
| 85 | `O=C(c1cnccn1)N1C[C@@H]2[C@@H](C1)OCC(=O)N2CC1CCCC1` | 2.695 |
| 86 | `O=C(CN1CC(n2cccn2)C1)NCCc1ccc(F)cc1` | -6.088 |
| 87 | `CN(C)C(=O)N1CCN(Cc2cnn(C)c2)CC2(CNC(=O)C2)C1` (stereo unspecified) | -2.005 |
| 88 | `O=C(NCCCO)c1nnsc1-c1ccccc1` | -5.22 |
| 89 | `COc1ccc(CN2C[C@H]3CN(c4cncnc4)C(=O)[C@H]3C2)cc1` | 0.241 |

For reference, 11 entries once more:

Result for CC1CC(NS(=O)(=O)c2ccc(C(F)(F)F)nc2)C1 (stereo unspecified) was 0.8163%.
Result for Cc1cnn(CC2CCCCN2C(=O)c2cc(Cl)c[nH]2)c1 (stereo unspecified) was -0.807%.
Result for Cn1ccc2c(-c3cc(N4CCCCC4)ncn3)ccnc21 was 2.016%.
Result for COCCN1CCC2(CC1)CN(C(C)=O)c1ccc(C)cc12 was 14.43%.
Result for Cc1ccc(CC(=O)N2CCn3cc(Cn4cncn4)nc3C2)cc1 was -8.628%.
Result for O=C(CN1CC(n2cccn2)C1)NCCc1ccc(F)cc1 was -6.088%.
Result for O=C(N1CCOCC1)N1CCN(CC(O)c2ccc(F)cc2)CC1 (stereo unspecified) was -0.6493%.
Result for C[C@@H]1CN(CCOc2ccc(F)cc2)CC[C@@]1(O)C1CCOCC1 was 0.6452%.
Result for COCCNC(=O)[C@@H]1C[C@@H]2CCN(c3ncccn3)C[C@H]2O1 was 21.51%.
Result for NS(=O)(=O)CCNC(=O)c1ccc(-c2ccc(F)cc2)cc1F was -1.408%.
Result for Cc1nn(C)c(N(C)C)c1CNCc1cccc(Br)c1 was -0.7916%.